Data: PubChem BioAssay AID1487 (National Center for Advancing Translational Sciences (NCATS), 2009)
Values joined by “and” are separate entries in the source; they are usually repeats but may differ in a detail not shown here. Identical values can stand only once. This is one part of the list. These are further read-outs of the screen, such as a control signal, another cell line or another target. No call is given for them. Most of these compounds were active or inconclusive in the main read-out, so they are no random draw. Words in brackets tell the shape of the fitted curve; partial curves, single points and poor fits give uncertain potencies.

Test: qHTS Assay for Modulators of Lamin A Splicing
Conditions: HeLa LMNA splicing GFP/RFP minigene ratio, 48 h
Procedure, shortened: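 S3 HeLa stable clones carrying a lamin A-EGFP splicing minigene plus DsRed2 were seeded at 600 cells/well in Opti-MEM with 2% FBS, pin-dosed and incubated 48 h at 37°C. Acumen cytometry (488 nm) gave the GFP/RFP total-intensity ratio.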

[1] = measured here: RFP viability control channel
[2] = measured here: GFP splicing reporter channel

Row | Compound | AC50 [1] | AC50 [2]
1 | Cc1ccc(Cn2ccc(NC(=O)c3cc(C(C)C)on3)n2)cc1 | 0.794 µM [falling, partial curve, poor fit] | 
2 | O=C(N/N=C/c1c(O)ccc2ccccc12)c1ccc[n+](CCO)c1 |  | 11.2 µM [falling, partial curve]
3 | COC(=O)c1cc(=O)n(Cc2ccc3c(c2)OCO3)c(=Nc2ccc(F)cc2)s1 | 11.2 µM [rising, single point] | 
4 | FC(F)(F)c1cccc(NC(=S)NC(c2ccccc2)c2ccccc2)c1 | 0.355 µM [rising, partial curve, poor fit] | 
5 | Fc1ccc(/C=N/Nc2ncnc3nc[nH]c23)cc1F |  | 2 µM [falling, full curve, poor fit]
6 | CCOC(=O)c1cc(-c2ccc(F)cc2)n(CCC(=O)NCCc2ccc(C)cc2)c1C | 15.8 µM [rising, single point] | 
7 | Clc1ccc(CNc2nnnn2-c2ccccc2)c(Cl)c1 | 28.2 µM [rising, single point] | 
8 | CCc1ccccc1NS(=O)(=O)c1ccc(NC(=O)N2CCCC2)cc1 | 0.631 µM [falling, full curve] | 0.447 µM [falling, full curve]
9 | CCc1nn2c(=O)cc(COC(=O)c3ccccc3NC(=O)C3CCCCC3)nc2s1 | 35.5 µM [rising, single point] | 
10 | CCCn1c(SCC(N)=O)nc2c(c1=O)C1(CCCC1)Cc1ccccc1-2 | 14.1 µM [rising, single point] | 12.6 µM [rising, single point]
11 | N#CC1=C(N)SC(C(=O)c2ccccc2)C1c1cccs1 (centres undefined) | 20 µM [rising, partial curve] | 
12 | N#Cc1ccc(-c2csc(NC(=O)/C=C/c3cccs3)n2)cc1 | 0.708 µM [rising, full curve, poor fit] | 1.26 µM [rising, full curve, poor fit]
13 | Cc1ccc(S(=O)(=O)N(C)C)cc1NC(=O)COC(=O)/C(=C/c1ccc(F)cc1)c1cccs1 | 31.6 µM [rising, single point] | 
14 | Cc1ccc2ccccc2[n+]1CCCS(=O)(=O)[O-] | 0.00398 µM [falling, full curve, poor fit] | 
15 | COC(=O)C1=C(Nc2ccc(C)cc2)C=C(C)C(C(=O)OC)C1c1ccc(OC)cc1 (centres undefined) |  | 25.1 µM [falling, partial curve]
16 | CC(=O)Nc1ncc(Cc2cc(Cl)ccc2Cl)s1 |  | 35.5 µM [rising, single point]
17 | CCCCn1c(O)c(/C=C/C=C/C=Nc2ccccc2)sc1=S |  | 0.00316 µM [rising, full curve, poor fit]
18 | CC(C)CC(NS(=O)(=O)c1cc(C(=O)O)ccc1Cl)C(=O)O (centres undefined) |  | 0.126 µM [falling, full curve, poor fit]
19 | Nc1nc2c(s1)COc1ccccc1-2 | 0.562 µM [falling, full curve] | 

Row | Compound | AC50 [1] | AC50 [2]
20 | Cc1cccc(CNc2ncnc3ccc(-c4ccc(C(=O)N(C)C)cc4)cc23)c1 | 0.447 µM [falling, full curve] | 6.31 µM [falling, partial curve, poor fit]
21 | Cc1ccc(-n2c([S-])c(C(=O)Nc3ccc(OC(F)F)cc3)[n+]3ccc(C(=O)NCCO)cc23)cc1C | 5.01 µM [falling, partial curve] | 1.58 µM [falling, full curve, poor fit]
22 | CC(C)(CNC(=O)c1ccc(Cl)c(S(=O)(=O)N2CCc3ccccc3C2)c1)N1CCOCC1 | 14.1 µM [rising, partial curve] | 
23 | COc1ccnc(N2CCN(c3ccc(Cl)cc3)CC2)c1C#N |  | 3.98 µM [rising, single point]
24 | CC(=O)Nc1cccc(/C(C)=N/NC(=O)c2c(-c3ccccc3Cl)noc2C)c1 | 3.16 µM [rising, full curve] | 2.24 µM [rising, single point]
25 | CCOC(=O)c1c(C)n(C)c2ccc(OCC(O)Cn3c(C)nc4ccccc43)cc12 (centres undefined) | 14.1 µM [rising, single point] | 
26 | CCCCNC(=O)C1CCC(CNS(=O)(=O)c2ccc(NC(C)=O)cc2)CC1 (centres undefined) | 35.5 µM [rising, single point] and 5.01 nM [falling, full curve, poor fit] | 35.5 µM [rising, single point] and 10 nM [falling, full curve, poor fit]
27 | CC(NC(=O)C(=O)N/N=C\c1ccc([N+](=O)[O-])cc1)c1ccccc1 (centres undefined) | 6.31 µM [falling, single point] | 
28 | CN1C2C=C(N(CCc3ccccc3)C(=O)c3ccc(Cl)cc3)CC1CC2 (centres undefined) | 7.08 µM [falling, partial curve, poor fit] | 10 µM [falling, partial curve, poor fit]
29 | Cc1nc(-c2ccc(S(=O)(=O)NCc3ccc(N(C)C)cc3)cc2)co1 |  | 12.6 µM [falling, partial curve]
30 | CC(=O)Nc1ccc(S(=O)(=O)N2CCN(CC(O)COc3ccc4ccccc4c3)CC2)cc1 (centres undefined) | 14.1 µM [rising, single point] | 
31 | CC(C)NC(=S)NC(=O)c1ccc(-c2ccccc2)cc1 | 35.5 µM [rising, single point] | 
32 | CC1(C)NC(=O)N(CCCCOc2ccc3ccccc3c2Cl)C1=O | 14.1 µM [rising, single point] | 
33 | Cc1cc(C)c(C)c(C(=O)CSc2nnc(-c3ccc4[nH]c(C)c(C)c4c3)o2)c1C | 8.91 µM [rising, partial curve, poor fit] | 15.8 µM [rising, partial curve, poor fit]
34 | CCCOc1ccc(OCCOCCNCc2ccccc2)cc1 | 12.6 µM [rising, single point] | 8.91 µM [rising, partial curve]
35 | COc1ccc2c(c1)[nH]c1c(Cl)ncnc12 | 1.41 µM [falling, single point] | 
36 | CCOC1(OCC)N=C(N)C2(C#N)C(c3cccc(OC)c3OC)C12C#N (centres undefined) | 1.12 µM [falling, partial curve] | 0.708 µM [falling, single point]
37 | O=C1CC(c2cccc(Cl)c2)CC(O)=C1C=NC1CCCC1 (centres undefined) |  | 14.1 µM [rising, single point]
38 | Cc1ccc2nc(-c3cccnc3)c(Nc3ccccc3C)n2c1 | 0.0891 µM [rising, full curve, poor fit] | 0.2 µM [rising, full curve]

Row | Compound | AC50 [1] | AC50 [2]
39 | COc1ccccc1C1CCCN1Cc1nc(-c2ccc(C)s2)oc1C (centres undefined) |  | 7.94 µM [falling, partial curve]
40 | CCC(C)(C)C(=O)Nc1cccc(Cl)c1C | 0.708 µM [falling, single point] | 
41 | Clc1ccc(C2=Nn3c(nnc3-c3cc(-c4ccccc4)n[nH]3)SC2)cc1 | 10 µM [rising, partial curve, poor fit] | 7.94 µM [rising, partial curve]
42 | CCc1cccc(CC)c1NC(=S)N(CCN(C)C)C(C)c1cccnc1 (centres undefined) | 0.794 µM [rising, full curve, poor fit] | 
43 | O=C(CCc1ccccc1)N/N=C/c1cc(Br)ccc1O | 15.8 µM [rising, partial curve] | 
44 | NS(=O)(=O)c1ccc(O)c(N2C(=O)c3cccc4c(C(=O)O)ccc(c34)C2=O)c1 | 0.891 µM [falling, single point] | 
45 | COc1ccc(-c2csc(NCc3ccco3)n2)cc1 | 12.6 µM [rising, single point] | 
46 | Cc1ccc(Nc2cc(C)nc3c(C)ccc([N+](=O)[O-])c23)cc1 | 11.2 µM [rising, partial curve, poor fit] | 17.8 µM [rising, single point]
47 | CC12CCC(CC1)C(C)(C)O2 | 35.5 µM [falling, single point] | 0.1 µM [falling, single point]
48 | Cc1ccc(C2c3[nH]c4ccccc4c3CCN2C(=O)CCC2CCCC2)cc1 (centres undefined) | 3.55 µM [rising, full curve] | 
49 | CC(C)(C)C(=O)Cn1nnc(-c2ccc(C(F)(F)F)cc2)n1 | 0.0794 µM [falling, full curve, poor fit] | 
50 | Cc1ccc(Cl)cc1-n1ncc2c(Nc3cccc(C)c3C)ncnc21 |  | 20 µM [falling, partial curve, poor fit]
51 | Cc1ccn2cc(C(=O)Nc3ccccc3N3CCOCC3)nc2c1 |  | 15.8 µM [rising, single point]
52 | O=C(Nc1cc(=O)[nH]c2ncnn12)c1ccccc1Cl |  | 10 µM [rising, single point]
53 | CS(=O)(=O)N(CCc1ccccc1)CC(=O)N1CCN(Cc2ccc3c(c2)OCO3)CC1 | 12.6 µM [rising, partial curve] | 8.91 µM [rising, partial curve]
54 | Cc1cc(-c2ccc(N3CCOCC3)cc2)nc2ccccc12 | 35.5 µM [rising, partial curve, poor fit] | 35.5 µM [rising, single point]
55 | Cc1cc2c(n1-c1ccc(C(=O)NCc3ccc(OC(C)C)cc3)cc1)CCCC2 |  | 35.5 µM [falling, single point]
56 | CC(=O)OC1CCC2C3CCc4cc(O)ccc4C3CCC12C (centres undefined) | 6.31 µM [rising, full curve] | 11.2 µM [rising, partial curve]
